Measurements reported in PubChem BioAssay AID652259 (Drosophila RNAi Screening Center, 2013).

Aim: 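Knock-downs that push a Wingless-driven reporter up or down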 (primary screen)
Cells: Drosophila clone 8 imaginal disc epithelial cells
Reagent: long dsRNA against Drosophila genes
Conditions: pathway stimulated by co-transfected Wingless expression plasmid
Read-out: 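Dual luciferase reads per well after Wingless plasmid stimulation: reporter firefly light and Renilla control light; activity is firefly divided by Renilla, a ratio not deposited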
Scale: firefly reporter light: higher = more Wg reporter light, before normalisation; Renilla control light: higher = more transfected or surviving cells
Active means: 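a knock-down is a candidate when at least two out of four statistical tests show it departing from its plate mean; one test alone signals a weak candidate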
Calls: active = candidate regulator (raises or lowers reporter); inactive = not a candidate
The deposit covers about 22,000 reagents; shown is an unselected part of those that have a named target and a result. In the full data, 233 (1.1%) are marked active. 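Light values are raw, unnormalised plate reads; the ratio scores behind the reporter calls were not deposited.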 A number with no mark means an inactive call. Not stated in the record: the amount of reagent, the time to read-out, the dose of the treatment.

Dscam4 [DRSC08911] | firefly reporter light, replicate 1: 2723; Renilla control light, replicate 1: 470
Dscam4 [DRSC08913] | firefly reporter light, replicate 1: 3805; Renilla control light, replicate 1: 1715
Dscam4 [DRSC10031] | firefly reporter light, replicate 1: 1857; firefly reporter light, replicate 2: 7520; Renilla control light, replicate 1: 1082; Renilla control light, replicate 2: 2898
Dscam4 [DRSC10329] | firefly reporter light, replicate 1: 1254; firefly reporter light, replicate 2: 4736; Renilla control light, replicate 1: 891; Renilla control light, replicate 2: 2124
Dscam4 [DRSC10765] | firefly reporter light, replicate 1: 1734; firefly reporter light, replicate 2: 9880; Renilla control light, replicate 1: 1456; Renilla control light, replicate 2: 4448
CG3349 [DRSC10359] | firefly reporter light, replicate 1: 6644; Renilla control light, replicate 1: 2576
CG33792 [DRSC05355] | firefly reporter light, replicate 1: 21618; Renilla control light, replicate 1: 19657

Continued, starting with the last 2 of the part before.
CG3349 [DRSC10359] | firefly reporter light, replicate 1: 6644; Renilla control light, replicate 1: 2576
CG33792 [DRSC05355] | firefly reporter light, replicate 1: 21618; Renilla control light, replicate 1: 19657
spn-D [DRSC22641] | firefly reporter light, replicate 1: 4.75e5; firefly reporter light, replicate 2: 6.01e5; Renilla control light, replicate 1: 1.88e5; Renilla control light, replicate 2: 2.09e5
CG17121 [DRSC15176] | firefly reporter light, replicate 1: 24455; Renilla control light, replicate 1: 19815
CG2145 [DRSC19835] | firefly reporter light, replicate 1: 3804; firefly reporter light, replicate 2: 7943; Renilla control light, replicate 1: 1136; Renilla control light, replicate 2: 2283
Kaz [DRSC14637] | firefly reporter light, replicate 1: 9009; Renilla control light, replicate 1: 9400
TM9SF4 [DRSC01888] | firefly reporter light, replicate 1: 10609; Renilla control light, replicate 1: 3510
